# The supplement of paper PMC8728848
# The list shows a part of the results.
# B1: OS9 (Arabidopsis thaliana) (protein)
# chain: MRGSHHHHHHGMASMTGGQQMGRDLYDDDDKSRLQIFPAHLVGTFSRNNREPKYKIEFLPEDSPFHPGDNLESMVMLDKHGNRFLCYLPKEEKATSGWTSSQQNISTVMMETQQLVKLKTPDELLQPLSEKCLFRQEGWWSYEFCHQKYVRQLHVEDENKIVQEFFLGTFDPEATAAFNQTVSDASTDASQRYHSHVYTNGTTCDLTGSPAEVEVRFVCAETRAMVTSITELSTCKYALTVQCPTLCKHPLFQLEKPVSHTIHCNAIPVEEDATRNKEEQAVDESPKMIADS
# Key:
# Test in all cases: glycan array binding signal (z-score within array); higher = stronger binding
# Conditions in all cases: glycan notation: IUPAC condensed, linker removed; mutation: R201A
# [1] = target: Neu5Ac(a2-3)Gal(b1-4)GlcNAc(b1-3)[Neu5Ac(a2-3)Gal(b1-4)GlcNAc(b1-6)]GalNAc
# Method in brief: (§1)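 The binding signal is a Z-score computed within each array and averaged over linkers. Arrays of the same protein sequence at different concentrations or buffers were also averaged together. Data originate from 3228 arrays in the Consortium for Functional Glycomics database, kept only where the protein sequence was available.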
# [2] = target: Neu5Ac(a2-3)Gal(b1-4)GlcNAc(b1-6)GalNAc
# Method in brief: as §1
# [3] = target: Neu5Ac(a2-3)Gal(b1-4)GlcNAc(b1-6)[Gal(b1-3)]GalNAc
# Method in brief: as §1
# [4] = target: Neu5Ac(a2-3)Gal(b1-4)GlcNAc(b1-6)[Neu5Ac(a2-3)Gal(b1-3)]GalNAc
# Method in brief: as §1
# [5] = target: Neu5Ac(a2-3)Gal(b1-4)GlcNAc6S
# Method in brief: as §1
# [6] = target: Neu5Ac(a2-3)Gal(b1-4)[Fuc(a1-3)]GlcNAc
# Method in brief: as §1
# [7] = target: Neu5Ac(a2-3)Gal(b1-4)[Fuc(a1-3)]GlcNAc(b1-2)Man
# Method in brief: as §1
# [8] = target: Neu5Ac(a2-3)Gal(b1-4)[Fuc(a1-3)]GlcNAc(b1-3)Gal
# Method in brief: as §1
# [9] = target: Neu5Ac(a2-3)Gal(b1-4)[Fuc(a1-3)]GlcNAc(b1-3)Gal(b1-4)GlcNAc
# Method in brief: as §1
# [10] = target: Neu5Ac(a2-3)Gal(b1-4)[Fuc(a1-3)]GlcNAc(b1-3)Gal(b1-4)[Fuc(a1-3)]GlcNAc(b1-3)Gal(b1-4)[Fuc(a1-3)]GlcNAc
# Method in brief: as §1
# [11] = target: Neu5Ac(a2-3)Gal(b1-4)[Fuc(a1-3)]GlcNAc(b1-3)GalNAc
# Method in brief: as §1
# [12] = target: Neu5Ac(a2-3)Gal(b1-4)[Fuc(a1-3)]GlcNAc(b1-6)[Gal(b1-3)]GalNAc
# Method in brief: as §1
# [13] = target: Neu5Ac(a2-3)Gal(b1-4)[Fuc(a1-3)]GlcNAc(b1-6)[Neu5Ac(a2-3)Gal(b1-3)]GalNAc
# Method in brief: as §1
# [14] = target: Neu5Ac(a2-3)Gal(b1-4)[Fuc(a1-3)]GlcNAc6S
# Method in brief: as §1
# [15] = target: Neu5Ac(a2-3)Gal6S(b1-4)GlcNAc
# Method in brief: as §1
# [16] = target: Neu5Ac(a2-3)Gal6S(b1-4)[Fuc(a1-3)]GlcNAc
# Method in brief: as §1
# [17] = target: Neu5Ac(a2-3)GalNAc
# Method in brief: as §1
# [18] = target: Neu5Ac(a2-3)GalNAc(b1-4)GlcNAc
# Method in brief: as §1
# [19] = target: Neu5Ac(a2-3)[GalNAc(b1-4)]Gal(b1-4)Glc
# Method in brief: as §1
# [20] = target: Neu5Ac(a2-3)[GalNAc(b1-4)]Gal(b1-4)GlcNAc
# Method in brief: as §1
# [21] = target: Neu5Ac(a2-3)[GalNAc(b1-4)]Gal(b1-4)GlcNAc(b1-3)GalNAc
# Method in brief: as §1
# [22] = target: Neu5Ac(a2-3)[Neu5Ac(a2-6)]GalNAc
# Method in brief: as §1
# [23] = target: Neu5Ac(a2-6)Gal
# Method in brief: as §1
# [24] = target: Neu5Ac(a2-6)Gal(b1-3)GlcNAc(b1-3)[Gal(b1-4)GlcNAc(b1-6)]Gal(b1-4)Glc
# Method in brief: as §1
# [25] = target: Neu5Ac(a2-6)Gal(b1-4)Glc
# Method in brief: as §1
# [26] = target: Neu5Ac(a2-6)Gal(b1-4)GlcNAc
# Method in brief: as §1
# [27] = target: Neu5Ac(a2-6)Gal(b1-4)GlcNAc(b1-2)Man
# Method in brief: as §1
# [28] = target: Neu5Ac(a2-6)Gal(b1-4)GlcNAc(b1-2)Man(a1-3)Man(b1-4)GlcNAc(b1-4)GlcNAc
# Method in brief: as §1
# [29] = target: Neu5Ac(a2-6)Gal(b1-4)GlcNAc(b1-2)Man(a1-3)[Gal(b1-4)GlcNAc(b1-2)Man(a1-6)]Man(b1-4)GlcNAc(b1-4)GlcNAc
# Method in brief: as §1
# [30] = target: Neu5Ac(a2-6)Gal(b1-4)GlcNAc(b1-2)Man(a1-3)[GlcNAc(b1-4)][Neu5Ac(a2-6)Gal(b1-4)GlcNAc(b1-2)Man(a1-6)]Man(b1-4)GlcNAc(b1-4)GlcNAc
# Method in brief: as §1
# [31] = target: Neu5Ac(a2-6)Gal(b1-4)GlcNAc(b1-2)Man(a1-3)[Man(a1-6)]Man(b1-4)GlcNAc(b1-4)GlcNAc
# Method in brief: as §1
# [32] = target: Neu5Ac(a2-6)Gal(b1-4)GlcNAc(b1-2)Man(a1-3)[Neu5Ac(a2-3)Gal(b1-4)GlcNAc(b1-2)Man(a1-6)]Man(b1-4)GlcNAc(b1-4)GlcNAc
# Method in brief: as §1
# [33] = target: Neu5Ac(a2-6)Gal(b1-4)GlcNAc(b1-2)Man(a1-3)[Neu5Ac(a2-6)Gal(b1-4)GlcNAc(b1-2)Man(a1-6)]Man(b1-4)GlcNAc(b1-4)GlcNAc
# Method in brief: as §1
# [34] = target: Neu5Ac(a2-6)Gal(b1-4)GlcNAc(b1-2)Man(a1-3)[Neu5Ac(a2-6)Gal(b1-4)GlcNAc(b1-2)Man(a1-6)]Man(b1-4)GlcNAc(b1-4)[Fuc(a1-6)]GlcNAc
# Method in brief: as §1
# [35] = target: Neu5Ac(a2-6)Gal(b1-4)GlcNAc(b1-2)Man(a1-6)Man(b1-4)GlcNAc(b1-4)GlcNAc
# Method in brief: as §1
# [36] = target: Neu5Ac(a2-6)Gal(b1-4)GlcNAc(b1-2)Man(a1-6)[Gal(b1-4)GlcNAc(b1-2)Man(a1-3)]Man(b1-4)GlcNAc(b1-4)GlcNAc
# Method in brief: as §1
# [37] = target: Neu5Ac(a2-6)Gal(b1-4)GlcNAc(b1-2)Man(a1-6)[GlcNAc(b1-2)Man(a1-3)]Man(b1-4)GlcNAc(b1-4)GlcNAc
# Method in brief: as §1
# [38] = target: Neu5Ac(a2-6)Gal(b1-4)GlcNAc(b1-2)Man(a1-6)[Man(a1-3)]Man(b1-4)GlcNAc(b1-4)GlcNAc
# Method in brief: as §1
# [39] = target: Neu5Ac(a2-6)Gal(b1-4)GlcNAc(b1-2)[Neu5Ac(a2-6)Gal(b1-4)GlcNAc(b1-4)]Man(a1-3)[GlcNAc(b1-4)][Neu5Ac(a2-6)Gal(b1-4)GlcNAc(b1-2)[Neu5Ac(a2-6)Gal(b1-4)GlcNAc(b1-6)]Man(a1-6)]Man(b1-4)GlcNAc(b1-4)GlcNAc
# Method in brief: as §1
# [40] = target: Neu5Ac(a2-6)Gal(b1-4)GlcNAc(b1-2)[Neu5Ac(a2-6)Gal(b1-4)GlcNAc(b1-4)]Man(a1-3)[GlcNAc(b1-4)][Neu5Ac(a2-6)Gal(b1-4)GlcNAc(b1-4)Man(a1-6)]Man(b1-4)GlcNAc(b1-4)GlcNAc
# Method in brief: as §1
# [41] = target: Neu5Ac(a2-6)Gal(b1-4)GlcNAc(b1-2)[Neu5Ac(a2-6)Gal(b1-4)GlcNAc(b1-6)]Man(a1-6)[Neu5Ac(a2-6)Gal(b1-4)GlcNAc(b1-2)Man(a1-3)][GlcNAc(b1-4)]Man(b1-4)GlcNAc(b1-4)GlcNAc
# Method in brief: as §1
# [42] = target: Neu5Ac(a2-6)Gal(b1-4)GlcNAc(b1-3)Gal(b1-3)GlcNAc
# Method in brief: as §1
# [43] = target: Neu5Ac(a2-6)Gal(b1-4)GlcNAc(b1-3)Gal(b1-4)GlcNAc
# Method in brief: as §1
# [44] = target: Neu5Ac(a2-6)Gal(b1-4)GlcNAc(b1-3)Gal(b1-4)GlcNAc(b1-2)Man(a1-3)[Neu5Ac(a2-6)Gal(b1-4)GlcNAc(b1-3)Gal(b1-4)GlcNAc(b1-2)Man(a1-6)]GalNAc
# Method in brief: as §1
# [45] = target: Neu5Ac(a2-6)Gal(b1-4)GlcNAc(b1-3)Gal(b1-4)GlcNAc(b1-3)Gal(b1-4)GlcNAc
# Method in brief: as §1
# [46] = target: Neu5Ac(a2-6)Gal(b1-4)GlcNAc(b1-3)Gal(b1-4)GlcNAc(b1-3)Gal(b1-4)GlcNAc(b1-2)Man(a1-3)[Neu5Ac(a2-6)Gal(b1-4)GlcNAc(b1-3)Gal(b1-4)GlcNAc(b1-3)Gal(b1-4)GlcNAc(b1-2)Man(a1-6)]GalNAc
# Method in brief: as §1
binder,measurement,setting,value
B1,glycan array binding signal (z-score),[1],1.01
same,glycan array binding signal (z-score),[2],-0.368
same,glycan array binding signal (z-score),[3],-0.726
same,glycan array binding signal (z-score),[4],-0.368
same,glycan array binding signal (z-score),[5],-0.49
same,glycan array binding signal (z-score),[6],-0.306
same,glycan array binding signal (z-score),[7],-0.537
same,glycan array binding signal (z-score),[8],-1.16
same,glycan array binding signal (z-score),[9],1.98
same,glycan array binding signal (z-score),[10],0.079
same,glycan array binding signal (z-score),[11],0.493
same,glycan array binding signal (z-score),[12],-0.48
same,glycan array binding signal (z-score),[13],-0.099
same,glycan array binding signal (z-score),[14],-1.1
same,glycan array binding signal (z-score),[15],-0.053
same,glycan array binding signal (z-score),[16],0.12
same,glycan array binding signal (z-score),[17],-0.751
same,glycan array binding signal (z-score),[18],-0.513
same,glycan array binding signal (z-score),[19],0.019
same,glycan array binding signal (z-score),[20],0.238
same,glycan array binding signal (z-score),[21],1.18
same,glycan array binding signal (z-score),[22],-0.469
same,glycan array binding signal (z-score),[23],0.561
same,glycan array binding signal (z-score),[24],-0.276
same,glycan array binding signal (z-score),[25],-0.544
same,glycan array binding signal (z-score),[26],-0.705
same,glycan array binding signal (z-score),[27],-0.879
same,glycan array binding signal (z-score),[28],1.26
same,glycan array binding signal (z-score),[29],-0.578
same,glycan array binding signal (z-score),[30],-0.484
same,glycan array binding signal (z-score),[31],-1.06
same,glycan array binding signal (z-score),[32],1.46
same,glycan array binding signal (z-score),[33],0.37
same,glycan array binding signal (z-score),[34],-0.474
same,glycan array binding signal (z-score),[35],-0.225
same,glycan array binding signal (z-score),[36],-0.323
same,glycan array binding signal (z-score),[37],-0.588
same,glycan array binding signal (z-score),[38],0.291
same,glycan array binding signal (z-score),[39],-0.834
same,glycan array binding signal (z-score),[40],0.408
same,glycan array binding signal (z-score),[41],-0.945
same,glycan array binding signal (z-score),[42],-0.109
same,glycan array binding signal (z-score),[43],-0.514
same,glycan array binding signal (z-score),[44],1.5
same,glycan array binding signal (z-score),[45],-0.58
same,glycan array binding signal (z-score),[46],-0.56

# Three records picked at random from those above:
binder,measurement,setting,value
B1,glycan array binding signal (z-score),[31],-1.06
same,glycan array binding signal (z-score),[13],-0.099
same,glycan array binding signal (z-score),[38],0.291
